Measurements reported in patent US9944718B2, “ADAM22 for use as a prognostic variable, and target for therapy, of a metastatic breast cancer disease” (Royal College of Surgeons in Ireland, priority 2011, dated 2018).
Part of at least one peptide drawing is inferred or uncertain, most often the ends. Peptide text beside a SMILES is read from it.

How the values were obtained:
[1] = test system: endocrine resistant LY2 cells; experiment: Motility assay, LY2 cells; assay type: cell-based; details: 5 nM, FIG. 1C/1E
Text: (§1) • For cell culture use Minimum Essential Medium-Eagle (EMEM; BioWhittaker, Product No. 12-611Q) containing the following supplements (=EMEM Complete Medium): 10% fetal calf serum (BioWhittaker, Product No. 14-503F), 1X penicillin/streptomycin solution (BioWhittaker, Product No. 17-602E), 1% L-glutamine (BioWhittaker, Product No. 17-605E), 1% non-essential amino acids (BioWhittaker, Product No. 13-114E) and 1% sodium pyruvate (BioWhittaker, Product No. 13-115E). • Split cells when they reach 60-80% confluency (every 2-3 days), diluting 1:5 to 1:10. • For cell motility, harvest cells with trypsin-versene mixture (BioWhittaker, Product No. 17-161F) and dilute into EMEM Complete Medium (warmed to 37° C.). For cells cultured in a T-75 flask, wash cells with 3 ml of trypsin. Add another 3 ml of trypsin and aspirate 2 ml. Allow cells to detach by incubating flask at 37° C. for 5 minutes and then add 9 ml of EMEM Complete Medium and centrifuge cells at 400×g for 5 minutes at room temperature. • Wash 3× with Serum-Free Culture Medium (warmed to 37° C.) (see Procedure section). • Adjust cell density to 10^4 cells/ml in EMEM serum-free medium and add 50 μl of the cell suspension to each well of a 96-well microplate (=500 cells/well). Cell motility is stimulated with 50 μl of 10% fetal bovine serum (FBS) diluted in EMEM serum-free medium. […]

[2] = test system: endocrine resistant LetR cells; experiment: Motility assay, LetR cells; assay type: cell-based; details: 5 nM, FIG. 1C/1E
Text: as §1

In the case of `CC[C@H](C)[C@H](NC(=O)[C@H](Cc1ccccc1)NC(=O)[C@H](CCCNC(=N)N)NC(=O)[C@@H](NC(=O)[C@H](CC(C)C)NC(=O)[C@H](CS)NC(=O)[C@@H](NC(=O)[C@H](Cc1ccc(O)cc1)NC(=O)[C@@H](NC(=O)[C@H](CC(=O)O)NC(=O)CNC(=O)[C@@H](N)CCCCN)C(C)C)[C@@H](C)CC)[C@@H](C)O)C(=O)NCC(=O)N[C@@H](CC(=O)O)C(=O)N[C@@H](CO)C(=O)N[C@@H](CCCCN)C(=O)N[C@H](C(=O)N[C@@H](CCSC)C(=O)N[C@@H](CCCCN)C(=O)N[C@@H](Cc1c[nH]c2ccccc12)C(=O)NCC(=O)NCC(=O)O)C(C)C` [LGI1 mimetic] (H-KGDVYICLTRFIGDSKVMKWGG-OH), the cellular migration [1] is reported as “inhibits cell migration” and the cellular migration [2] is reported as “inhibits cell migration”.
